The target in assay [1] is T1, Dvl2 (amino acids 182-389) (human) (UniProt O14641).
T1 sequence: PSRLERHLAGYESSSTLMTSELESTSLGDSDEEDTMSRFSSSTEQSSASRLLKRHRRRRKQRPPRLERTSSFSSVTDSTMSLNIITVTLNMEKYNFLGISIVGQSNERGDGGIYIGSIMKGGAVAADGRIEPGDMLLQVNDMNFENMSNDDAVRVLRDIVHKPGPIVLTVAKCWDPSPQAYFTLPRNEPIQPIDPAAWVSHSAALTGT
Description: ELISA. On the technique in general: ELISA stands for enzyme-linked immunosorbent assay.

The target in assay [2] is T2, Dvl2 (amino acids 390-536) (human) (UniProt O14641).
T2 sequence: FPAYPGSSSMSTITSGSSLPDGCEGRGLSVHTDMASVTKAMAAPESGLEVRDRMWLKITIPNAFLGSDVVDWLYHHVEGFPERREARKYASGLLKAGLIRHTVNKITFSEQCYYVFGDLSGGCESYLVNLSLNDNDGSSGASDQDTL
Description: ELISA.

These are yes or no findings as the source states them, for the method shown. Sequences can lack the tags named with a protein.

Consider one molecule from paper doi:10.1101/2025.10.09.681388 (bioRxiv, 2025).

B1: GST-tagged profilin2 (natural protein, mouse, UniProt Q9JJV2 1-140, looked up)
chain: MAGWQSYVDNLMCDGCCQEAAIVGYCDAKYVWAATAGGVFQSITPVEIDMIVGKDREGFFTNGLTLGAKKCSVIRDSLYVDGDCTMDIRTKSQGGEPTYNVAVGRAGRVLVFVMGKEGVHGGGLNKKAYSMAKYLRDSGF
As for B1, the binding entry in assay [1] and in assay [2] was “no binding” in each case.
